# Percent effect of library compounds

Chains of the proteins cited; added tags and fusions are not shown. Residues count along the entry.
UniProt P9WNZ1, whole entry: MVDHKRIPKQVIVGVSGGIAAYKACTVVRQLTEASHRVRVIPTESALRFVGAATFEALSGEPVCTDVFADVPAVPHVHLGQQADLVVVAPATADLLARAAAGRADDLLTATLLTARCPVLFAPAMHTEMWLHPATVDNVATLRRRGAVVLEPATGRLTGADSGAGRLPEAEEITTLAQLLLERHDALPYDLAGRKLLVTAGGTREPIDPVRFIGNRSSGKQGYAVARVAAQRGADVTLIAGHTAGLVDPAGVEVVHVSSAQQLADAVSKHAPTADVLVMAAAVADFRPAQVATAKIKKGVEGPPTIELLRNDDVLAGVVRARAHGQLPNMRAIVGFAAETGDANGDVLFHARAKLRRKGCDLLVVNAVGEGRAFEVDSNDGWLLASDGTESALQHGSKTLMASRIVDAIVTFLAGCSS
UniProt I6X8D2, whole entry: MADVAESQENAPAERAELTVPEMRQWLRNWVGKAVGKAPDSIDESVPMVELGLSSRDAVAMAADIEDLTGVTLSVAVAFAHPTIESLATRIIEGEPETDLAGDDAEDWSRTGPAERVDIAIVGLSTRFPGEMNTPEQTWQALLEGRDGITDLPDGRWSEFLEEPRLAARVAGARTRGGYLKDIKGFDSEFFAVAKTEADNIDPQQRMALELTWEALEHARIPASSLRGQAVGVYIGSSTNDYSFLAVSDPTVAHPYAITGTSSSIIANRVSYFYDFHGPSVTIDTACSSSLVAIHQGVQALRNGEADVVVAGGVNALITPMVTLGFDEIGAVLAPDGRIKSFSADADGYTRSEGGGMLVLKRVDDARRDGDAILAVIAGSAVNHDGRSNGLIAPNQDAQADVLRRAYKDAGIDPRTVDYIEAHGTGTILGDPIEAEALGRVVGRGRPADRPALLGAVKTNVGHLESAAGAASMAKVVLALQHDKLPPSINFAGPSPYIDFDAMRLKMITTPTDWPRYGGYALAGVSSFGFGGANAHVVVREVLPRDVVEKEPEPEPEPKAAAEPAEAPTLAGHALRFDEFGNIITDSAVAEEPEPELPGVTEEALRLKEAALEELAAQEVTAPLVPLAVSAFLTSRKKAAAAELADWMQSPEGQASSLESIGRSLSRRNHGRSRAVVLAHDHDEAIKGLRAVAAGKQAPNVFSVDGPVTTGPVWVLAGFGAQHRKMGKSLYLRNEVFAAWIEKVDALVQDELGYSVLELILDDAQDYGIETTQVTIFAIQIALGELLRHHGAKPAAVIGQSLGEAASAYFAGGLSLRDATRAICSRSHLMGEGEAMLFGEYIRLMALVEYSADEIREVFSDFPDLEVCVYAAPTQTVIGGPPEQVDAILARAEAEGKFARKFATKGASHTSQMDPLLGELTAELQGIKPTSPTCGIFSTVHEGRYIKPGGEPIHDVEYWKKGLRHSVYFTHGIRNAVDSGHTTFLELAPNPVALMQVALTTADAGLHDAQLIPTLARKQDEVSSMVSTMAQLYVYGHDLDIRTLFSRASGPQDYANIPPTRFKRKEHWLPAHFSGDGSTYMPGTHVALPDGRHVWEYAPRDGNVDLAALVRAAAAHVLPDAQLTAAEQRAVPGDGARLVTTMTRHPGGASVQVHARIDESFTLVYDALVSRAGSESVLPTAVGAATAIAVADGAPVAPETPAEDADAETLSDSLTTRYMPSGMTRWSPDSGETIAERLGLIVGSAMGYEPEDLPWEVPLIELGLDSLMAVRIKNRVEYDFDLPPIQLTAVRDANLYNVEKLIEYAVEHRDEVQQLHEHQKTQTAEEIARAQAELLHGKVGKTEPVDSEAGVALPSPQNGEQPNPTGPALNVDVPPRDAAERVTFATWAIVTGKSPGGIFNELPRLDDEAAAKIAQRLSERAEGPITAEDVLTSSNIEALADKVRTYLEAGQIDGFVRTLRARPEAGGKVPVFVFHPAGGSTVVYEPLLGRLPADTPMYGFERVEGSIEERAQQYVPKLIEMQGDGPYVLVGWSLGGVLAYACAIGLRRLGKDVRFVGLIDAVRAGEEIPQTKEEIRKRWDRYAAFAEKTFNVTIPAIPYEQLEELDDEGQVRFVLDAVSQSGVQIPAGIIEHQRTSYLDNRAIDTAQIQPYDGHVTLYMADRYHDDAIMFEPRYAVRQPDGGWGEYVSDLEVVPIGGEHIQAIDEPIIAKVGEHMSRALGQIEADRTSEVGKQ
UniProt P9WFT3, whole entry: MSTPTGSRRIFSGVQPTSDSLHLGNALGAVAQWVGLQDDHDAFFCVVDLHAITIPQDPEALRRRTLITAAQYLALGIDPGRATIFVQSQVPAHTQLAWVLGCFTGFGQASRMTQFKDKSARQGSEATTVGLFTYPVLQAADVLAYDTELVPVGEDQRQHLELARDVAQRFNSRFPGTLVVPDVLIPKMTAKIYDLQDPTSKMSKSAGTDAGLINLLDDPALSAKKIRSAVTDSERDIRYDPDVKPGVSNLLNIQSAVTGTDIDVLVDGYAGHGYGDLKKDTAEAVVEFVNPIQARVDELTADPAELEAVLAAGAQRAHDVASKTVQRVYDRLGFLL
UniProt A4I591, 1-473: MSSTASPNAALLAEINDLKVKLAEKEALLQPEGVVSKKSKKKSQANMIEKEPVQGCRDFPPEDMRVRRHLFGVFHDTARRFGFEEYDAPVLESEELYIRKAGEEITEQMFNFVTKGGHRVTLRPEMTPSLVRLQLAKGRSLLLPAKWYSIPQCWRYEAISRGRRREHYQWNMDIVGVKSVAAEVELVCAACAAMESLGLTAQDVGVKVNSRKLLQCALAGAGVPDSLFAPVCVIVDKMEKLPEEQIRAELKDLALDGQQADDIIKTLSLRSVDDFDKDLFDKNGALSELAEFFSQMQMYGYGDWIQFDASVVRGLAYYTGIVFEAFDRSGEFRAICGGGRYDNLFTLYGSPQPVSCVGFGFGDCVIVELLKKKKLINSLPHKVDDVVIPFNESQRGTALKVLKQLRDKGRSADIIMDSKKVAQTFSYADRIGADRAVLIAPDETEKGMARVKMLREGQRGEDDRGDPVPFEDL

CoaBC: 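Coenzyme A biosynthesis protein CoaBC, Mycobacterium tuberculosis (UniProt P9WNZ1). Enzyme assay of CoaBC with a phosphate dye (Biomol Green) read at 650 nm. Concentration: 30 µM. Direction is inferred from only a few compounds that gave an IC50; most scored high, so higher reads as stronger inhibition. Most strong results did not repeat in a second test. Of about 67,000 compounds tested this way, about 40 (0.06%) reached 50% or more in at least one test.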
Pks13 thioesterase: 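Polyketide synthase Pks13, Mycobacterium tuberculosis (UniProt I6X8D2). Enzyme assay of the thioesterase domain of polyketide synthase 13; the read-out is not stated. Concentration: 30 µM. The record gives no direction; the compounds picked for IC50 retests had high values, so higher reads as stronger inhibition. About 67,000 compounds were tested under these conditions; 0.46% (about 300) showed 50% or more at least once.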
MtTrpRS: 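Tryptophan-tRNA ligase, Mycobacterium tuberculosis (UniProt P9WFT3). Enzyme assay of tryptophanyl-tRNA synthetase; the read-out is not stated. Tested at 10 µM. Higher most likely means stronger inhibition; the record gives no direction and few retests gave an IC50. About 65,000 compounds were tested under these conditions; 0.098% (about 64) showed 50% or more at least once.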
LiHisRS: 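Histidine-tRNA ligase, Leishmania infantum (UniProt A4I591). Enzyme assay of histidyl-tRNA synthetase; the read-out is not stated. Concentration: 30 µM. The record gives no direction; compounds that gave an IC50 in retests scored well above the rest, so higher reads as stronger inhibition. The assay is labelled LdHisRS but filed under L. infantum. Of about 69,000 compounds tested this way, about 410 (0.6%) reached 50% or more in at least one test.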

Results are given as percent effect.
The record does not define 0% and 100%; most values in the screen are far below 50% and negative numbers occur (in some assays of this library far below -100).
Compounds were drawn at random from those tested, without regard to their results.

{"compound": "COCC1CN(C(=O)c2cccn2C)Cc2nccn2C1", "stereo": "stereo unspecified", "CoaBC": 17.1, "Pks13 thioesterase": -32.76, "MtTrpRS": -0.1762, "LiHisRS": 12.41}
{"compound": "CS(=O)(=O)NC1CCCN(C(=O)NCc2ccccc2Cl)C1", "stereo": "stereo unspecified", "CoaBC": 1.567, "Pks13 thioesterase": -4.108, "MtTrpRS": -4.89, "LiHisRS": 9.735}
{"compound": "O=C(NC[C@@]1(COc2cnccn2)C[C@@H](O)[C@@H](O)C1)C1CCOCC1", "CoaBC": 4.519, "Pks13 thioesterase": -4.817, "MtTrpRS": -0.2288, "LiHisRS": 10.81}
{"compound": "Cc1cc(NC(=O)C(C)N2CCN(c3nccs3)CC2)on1", "stereo": "stereo unspecified", "CoaBC": 14.11, "Pks13 thioesterase": -2.583, "MtTrpRS": -2.968, "LiHisRS": 15.09}
{"compound": "c1ccc(-n2cc(CN3CCCC3Cn3cncn3)nn2)cc1", "stereo": "stereo unspecified", "CoaBC": 2.417, "Pks13 thioesterase": -10.92, "MtTrpRS": -4.345, "LiHisRS": 11.3}
{"compound": "N#CC(NC(=O)CCC1CCC1)c1cnn(-c2ccccc2)c1", "stereo": "stereo unspecified", "CoaBC": 2.948, "Pks13 thioesterase": -21.76, "MtTrpRS": 4.615, "LiHisRS": 6.452}
{"compound": "O=C(NCCc1ccccn1)C1(n2cnnn2)CCCCC1", "CoaBC": 1.013, "Pks13 thioesterase": 24.73, "MtTrpRS": 3.067, "LiHisRS": 18.42}
{"compound": "Cn1cccc1C(=O)NC(C)(C(N)=O)c1cccc(C(F)(F)F)c1", "stereo": "stereo unspecified", "CoaBC": -4.481, "Pks13 thioesterase": -8.313, "MtTrpRS": 3.985, "LiHisRS": 12.35}
{"compound": "CC1CCCCN1C1CN(C(=O)c2sccc2S(N)(=O)=O)C1", "stereo": "stereo unspecified", "Pks13 thioesterase": -18.56, "MtTrpRS": -1.715, "LiHisRS": 9.859}
{"compound": "c1ccc(CCCN2CCOC(Cn3cccn3)C2)cc1", "stereo": "stereo unspecified", "CoaBC": 6.005, "Pks13 thioesterase": -13.05, "MtTrpRS": -9.028, "LiHisRS": 6.195}
{"compound": "CC(=O)NC1CCCN(Cc2csc(-c3ncccn3)n2)C1", "stereo": "stereo unspecified", "CoaBC": 2.366, "MtTrpRS": 29.7, "LiHisRS": 16.51}
{"compound": "CC(=O)N1CCCN(C2CCCCc3ccccc32)CC1", "stereo": "stereo unspecified", "CoaBC": 17.2, "Pks13 thioesterase": -20.11, "MtTrpRS": -1.699, "LiHisRS": 15.38}
{"compound": "CSCCN1CCN(c2nc(N)ncc2C)CC1", "CoaBC": -3.106, "Pks13 thioesterase": -0.2494, "MtTrpRS": -2.171, "LiHisRS": 0.8333}
{"compound": "COCC1CN(C(=O)c2ccc(C)o2)Cc2nccn2C1", "stereo": "stereo unspecified", "CoaBC": -1.854, "MtTrpRS": 15.54, "LiHisRS": -7}
{"compound": "CS(=O)(=O)NC[C@]1(O)CCN(C(=O)Cc2cccs2)C[C@H]1O", "CoaBC": 13.63, "Pks13 thioesterase": -7.339, "MtTrpRS": 13.28, "LiHisRS": 17.89}
{"compound": "Cn1ncc2c(N3CCN(C(N)=O)CC3)nc(C3CCCC3)nc21", "CoaBC": -5.485, "Pks13 thioesterase": -6.468, "MtTrpRS": 1.896, "LiHisRS": 2.885}
{"compound": "CC(C)(CNC1CCCN(Cc2ccccc2F)C1)CN1CCOCC1", "stereo": "stereo unspecified", "CoaBC": -1.378, "Pks13 thioesterase": -11.73, "MtTrpRS": -0.5485, "LiHisRS": 8.163}

2 of the entries, repeated:

- c1ccc(-n2cc(CN3CCCC3Cn3cncn3)nn2)cc1 (stereo unspecified) | CoaBC: 2.417%; Pks13 thioesterase: -10.92%; MtTrpRS: -4.345%; LiHisRS: 11.3%
- c1ccc(CCCN2CCOC(Cn3cccn3)C2)cc1 (stereo unspecified) | CoaBC: 6.005%; Pks13 thioesterase: -13.05%; MtTrpRS: -9.028%; LiHisRS: 6.195%

Measurements from “University of Dundee, Small-Polar-MMV Screening Library” (2021), ChEMBL document CHEMBL3988442.